# The amount applied is not stated for every result.
# Key:
# Assay type in all cases: cell-based
# [1] = system: cells expressing per-1; assay: DSPA drug sensitivity pattern, per-1 cells; conditions: drug sensitivity pattern of F25 + substance vs per-1
# [2] = system: cells expressing CD44/H-CAM; assay: DSPA drug sensitivity pattern, CD44/H-CAM cells; conditions: drug sensitivity pattern of F25 + substance vs CD44/H-CAM
# [3] = system: cells expressing CD44/3E; assay: DSPA drug sensitivity pattern, CD44/3E cells; conditions: drug sensitivity pattern of F25 + substance vs CD44/3E
# [4] = system: cells expressing CD44/3s; assay: DSPA drug sensitivity pattern, CD44/3s cells; conditions: drug sensitivity pattern of F25 + substance vs CD44/3s
# [5] = system: cells expressing Jagged-1; assay: DSPA drug sensitivity pattern, Jagged-1 cells; conditions: drug sensitivity pattern of F25 + substance vs Jagged-1
# [6] = system: cells expressing p94-WT; assay: DSPA drug sensitivity pattern, p94-WT cells; conditions: drug sensitivity pattern of F25 + substance vs p94-WT
# [7] = system: FBRCA1-13 cells; assay: DSPA drug sensitivity pattern, FBRCA1-13 cells; conditions: drug sensitivity pattern of F25 + substance vs FBRCA1-13
# [8] = system: FMDM2hwt-6 cells; assay: DSPA drug sensitivity pattern, FMDM2hwt-6 cells; conditions: drug sensitivity pattern of F25 + substance vs FMDM2hwt-6
# [9] = system: p27-3 cells; assay: DSPA drug sensitivity pattern, p27-3 cells; conditions: drug sensitivity pattern of F25 + substance vs p27-3
# [10] = system: MSSP-10 cells; assay: DSPA drug sensitivity pattern, MSSP-10 cells; conditions: drug sensitivity pattern of F25 + substance vs MSSP-10
# [11] = system: MM1 cells; assay: DSPA drug sensitivity pattern, MM1 cells; conditions: drug sensitivity pattern of F25 + substance vs MM1
# [12] = system: AMY1 cells; assay: DSPA drug sensitivity pattern, AMY1 cells; conditions: drug sensitivity pattern of F25 + substance vs AMY1
# [13] = system: Max cells; assay: DSPA drug sensitivity pattern, Max cells; conditions: drug sensitivity pattern of F25 + substance vs Max
# [14] = system: TERT-DN cells; assay: DSPA drug sensitivity pattern, TERT-DN cells; conditions: drug sensitivity pattern of F25 + substance vs TERT-DN
# [15] = system: PTEN-G129R cells; assay: DSPA drug sensitivity pattern, PTEN-G129R cells; conditions: drug sensitivity pattern of F25 + substance vs PTEN-G129R
# [16] = system: Bcl-2 cells; assay: DSPA drug sensitivity pattern, Bcl-2 cells; conditions: drug sensitivity pattern of F25 + substance vs Bcl-2
# [17] = system: per2 cells; assay: DSPA drug sensitivity pattern, per2 cells; conditions: drug sensitivity pattern of F25 + substance vs per2
# [18] = system: per3 cells; assay: DSPA drug sensitivity pattern, per3 cells; conditions: drug sensitivity pattern of F25 + substance vs per3
# [19] = system: Cyclin D1-11 cells; assay: DSPA drug sensitivity pattern, Cyclin D1-11 cells; conditions: drug sensitivity pattern of F25 + substance vs Cyclin D1-
# [20] = system: STAT2-4 cells; assay: DSPA drug sensitivity pattern, STAT2-4 cells; conditions: drug sensitivity pattern of F25 + substance vs STAT2-4
# [21] = system: Bad-22 cells; assay: DSPA drug sensitivity pattern, Bad-22 cells; conditions: drug sensitivity pattern of F25 + substance vs Bad-22
# [22] = system: FAPP-4 cells; assay: DSPA drug sensitivity pattern, FAPP-4 cells; conditions: drug sensitivity pattern of F25 + substance vs FAPP-4
# [23] = system: FHO-6 cells; assay: DSPA drug sensitivity pattern, FHO-6 cells; conditions: drug sensitivity pattern of F25 + substance vs FHO-6
compound,measurement,setting,value
CCCNC(=O)[C@H]1O[C@@H]1C(=O)N[C@H](C(=O)N1CCC[C@H]1C(=O)O)[C@@H](C)CC [CA-074],correlation coefficient (r) with per-1,[1],−0.30
same,correlation coefficient (r) with CD44/H-CAM,[2],0.21
same,correlation coefficient (r) with CD44/3E,[3],−0.03
same,correlation coefficient (r) with CD44/3s,[4],0.20
same,correlation coefficient (r) with Jagged-1,[5],0.49
same,correlation coefficient (r) with p94-WT,[6],0.29
same,correlation coefficient (r) with FBRCA1-13,[7],−0.01
same,correlation coefficient (r) with FMDM2hwt-6,[8],0.20
same,correlation coefficient (r) with p27-3,[9],0.43
same,correlation coefficient (r) with MSSP-10,[10],0.35
same,correlation coefficient (r) with MM1,[11],0.14
same,correlation coefficient (r) with AMY1,[12],0.02
same,correlation coefficient (r) with Max,[13],0.00
same,correlation coefficient (r) with TERT-DN,[14],−0.41
same,correlation coefficient (r) with PTEN-G129R,[15],−0.34
same,correlation coefficient (r) with Bcl-2,[16],−0.01
same,correlation coefficient (r) with per2,[17],−0.04
same,correlation coefficient (r) with per3,[18],0.23
same,correlation coefficient (r) with Cyclin D1-,[19],0.06
same,correlation coefficient (r) with STAT2-4,[20],0.43
same,correlation coefficient (r) with Bad-22,[21],0.21
same,correlation coefficient (r) with FAPP-4,[22],0.12
same,correlation coefficient (r) with FHO-6,[23],0.20
